Data from PubChem BioAssay AID256 (DTP/NCI, 2004).
The list is a part of this screen's results and no random one: it gathers tests that were run many times, whatever their T/C, doses with no T/C, and many T/C values between a quarter and a half above the control. Further doses and runs are listed elsewhere. T/C: endpoint of the treated group in % of that of the vehicle group. Some entries give survivors of the animals treated and no T/C: the source files T/C as zero there, which appears to mark a toxic dose or a test without result, not a measured value. Some doses without a T/C left all or most animals alive at the check, yet need not have been tolerated: the source hardly ever lists a survival T/C far under the control, and the zero likely stands for such cases as well. Counts of survivors are from the toxicity check (mostly the fifth day) where no day follows; animals may have died later. Schedules are NCI's codes, taken here to give the interval after Q, in days (D) or hours (H), and the number of doses after X. Some entries hold several experiments; their values stand side by side, smallest first. Where survival is the endpoint, this PubChem deposit counts one and a half times the control or more as active, and values a quarter to a half above the control carry no call in these data; other NCI protocols may use other cut-offs. Some T/C values are followed by the survivors on the day toxicity was checked, most often the fifth; where none is given, no animal had died by that day. Counts like (3×) give the number of equal values in this list.

System: CD2F1 mice, L1210 leukemia ip, survival T/C
Experiment: NCI In Vivo Anticancer Drug Screen. Data for tumor model L1210 Leukemia (intraperitoneal) in CD2F1 (CDF1) mice
Conditions: higher T/C = longer survival
Summary of the method: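 Mice carrying a transplanted tumor received test compound or vehicle alone. The value is the measurement in the treated group divided by that in the vehicle-treated control group.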

[1] = T/C endpoint: mean survival time, dose: 200.0 mg/kg/injection, schedule: Q01DX009 (ip), vehicle: saline with Tween-80
[2] = T/C endpoint: mean survival time, dose: 400.0 mg/kg/injection, schedule: Q04DX003 (ip), vehicle: saline with Tween-80

CN(C)CCCN=Cc1cc([N+](=O)[O-])ccc1O.CN(C)CCCN=Cc1cc([N+](=O)[O-])ccc1O.[Ni+2]
survivor count (T/C endpoint: mean survival time, dose: 25.0 mg/kg/injection, schedule: Q04DX002 (ip), vehicle: saline with Tween-80): 3 of 3
survivor count (T/C endpoint: mean survival time, dose: 100.0 mg/kg/injection, schedule: Q04DX002 (ip), vehicle: saline with Tween-80): 1 of 3

Cc1ccc(N2C(=O)C=CC2=O)cc1
survivor count (T/C endpoint: mean survival time, dose: 10.0 mg/kg/injection, schedule: Q01DX009 (ip), vehicle: saline sonified): 5 of 6

CC1(C)CC(=O)C=C(N2CCC(CCCC3CCN(C4=CC(=O)CC(C)(C)C4)CC3)CC2)C1
survivor count [1]: 3 of 6
survivor count (T/C endpoint: mean survival time, dose: 400.0 mg/kg/injection, schedule: Q01DX001 (ip), vehicle: saline with Tween-80): 1 of 6

CCCCCCCCCCCCCCCCCC[N+]1(Cc2ccccc2)CCOCC1
survivor count [1]: 5 of 6
survivor count (T/C endpoint: mean survival time, dose: 400.0 mg/kg/injection, schedule: Q01DX009 (ip), vehicle: saline with Tween-80): 0 of 6

CCN(CC)CCCC(C)NCCCCNC(C)CCCN(CC)CC (stereo not given)
survivor count (T/C endpoint: mean survival time, dose: 50.0 mg/kg/injection, schedule: Q01DX009 (ip), vehicle: water): 2 of 6
survivor count (T/C endpoint: mean survival time, dose: 100.0 mg/kg/injection, schedule: Q01DX009 (ip), vehicle: water): 0 of 6
survivor count (T/C endpoint: mean survival time, dose: 200.0 mg/kg/injection, schedule: Q01DX009 (ip), vehicle: water): 0 of 6

C=C(CC(=O)O)C(=O)O
survivor count [2]: 0 of 6

OCC(F)(F)F
survivor count (T/C endpoint: mean survival time, dose: 200.0 mg/kg/injection, schedule: Q01DX009 (ip), vehicle: saline): 3 of 6
survivor count (T/C endpoint: mean survival time, dose: 400.0 mg/kg/injection, schedule: Q01DX009 (ip), vehicle: saline): 0 of 6

Brc1cccc(-n2ccnc2)c1
survivor count [2]: 3 of 6

O=C[C@@H](CO)O[C@H](C=O)n1cnc2c(=O)[nH]cnc21
T/C (T/C endpoint: mean survival time, dose: 40.0 mg/kg/injection, schedule: Q01DX009 (ip), vehicle: saline): 127 % of control
T/C (T/C endpoint: mean survival time, dose: 50.0 mg/kg/injection, schedule: Q01DX007 (ip), vehicle: saline): 136 % of control
T/C (T/C endpoint: mean survival time, dose: 50.0 mg/kg/injection, schedule: Q01DX009 (ip), vehicle: saline): 136 % of control
T/C (T/C endpoint: mean survival time, dose: 50.0 mg/kg/injection, schedule: Q03DX003 (ip), vehicle: saline): 130 % of control
T/C (T/C endpoint: mean survival time, dose: 80.0 mg/kg/injection, schedule: Q01DX009 (ip), vehicle: saline): 135 % of control
T/C (T/C endpoint: mean survival time, dose: 100.0 mg/kg/injection, schedule: Q01DX009 (ip), vehicle: saline): 148 % of control
T/C (T/C endpoint: mean survival time, dose: 100.0 mg/kg/injection, schedule: Q03DX003 (ip), vehicle: saline): 148 % of control
T/C (T/C endpoint: mean survival time, dose: 100.0 mg/kg/injection, schedule: Q04DX003 (ip), vehicle: saline): 143 % of control [5 of 6 alive]
T/C (T/C endpoint: mean survival time, dose: 280.0 mg/kg/injection, schedule: Q01DX001 (ip), vehicle: saline): 141 % of control
survivor count (T/C endpoint: mean survival time, dose: 320.0 mg/kg/injection, schedule: Q01DX009 (ip), vehicle: saline): 4 of 8 and 5 of 6
survivor count (T/C endpoint: mean survival time, dose: 560.0 mg/kg/injection, schedule: Q01DX001 (ip), vehicle: saline): 2 of 7
T/C (T/C endpoint: median survival time, dose: 39.0 mg/kg/injection, schedule: Q01DX009 (ip), vehicle: sodium bicarbonate): 128 % of control
T/C (T/C endpoint: median survival time, dose: 59.0 mg/kg/injection, schedule: Q01DX009 (ip), vehicle: clinical formulation): 130 % of control
T/C (T/C endpoint: median survival time, dose: 59.0 mg/kg/injection, schedule: Q01DX009 (ip), vehicle: sodium bicarbonate): 135 % of control
T/C (T/C endpoint: median survival time, dose: 64.8 mg/kg/injection, schedule: Q01DX005 (ip), vehicle: saline): 125 % of control
T/C (T/C endpoint: median survival time, dose: 65.0 mg/kg/injection, schedule: Q01DX009 (ip), vehicle: water): 131, 137, 143, 150, 156, 168, 175 % of control
T/C (T/C endpoint: median survival time, dose: 100.0 mg/kg/injection, schedule: Q01DX005 (ip), vehicle: distilled water + Tween-80): 142 % of control
T/C (T/C endpoint: median survival time, dose: 108.0 mg/kg/injection, schedule: Q01DX005 (ip), vehicle: saline): 139 % of control
T/C (T/C endpoint: median survival time, dose: 108.0 mg/kg/injection, schedule: Q01DX009 (ip), vehicle: water): 162, 168, 175 (2×), 181, 181 [7 of 8 alive], 187 % of control
T/C (T/C endpoint: median survival time, dose: 180.0 mg/kg/injection, schedule: Q01DX009 (ip), vehicle: water): 112 [6 of 8 alive], 118 (2×), 137, 175, 193, 218 % of control
survivor count (T/C endpoint: median survival time, dose: 200.0 mg/kg/injection, schedule: Q01DX009 (ip), vehicle: clinical formulation): 5 of 10
survivor count (T/C endpoint: median survival time, dose: 200.0 mg/kg/injection, schedule: Q01DX009 (ip), vehicle: sodium bicarbonate): 3 of 10
survivor count (T/C endpoint: median survival time, dose: 300.0 mg/kg/injection, schedule: Q01DX009 (ip), vehicle: clinical formulation): 0 of 10
survivor count (T/C endpoint: median survival time, dose: 300.0 mg/kg/injection, schedule: Q01DX009 (ip), vehicle: sodium bicarbonate): 0 of 10
survivor count (T/C endpoint: median survival time, dose: 300.0 mg/kg/injection, schedule: Q01DX009 (ip), vehicle: water): 0 of 8, 1 of 8, 2 of 8, 3 of 8
survivor count (T/C endpoint: median survival time, dose: 400.0 mg/kg/injection, schedule: Q01DX005 (ip), vehicle: distilled water + Tween-80): 2 of 6
